According to PMC1097757:
These are yes or no findings as the source states them, for the method shown. Some results given as binding are weak or reduced against the parent protein; the word gives no strength. Tags and fused reporters may be left off the sequences shown.

T1: ACDP4 (Ancient Conserved Domain Protein 4), fused to the GAL4 DNA-binding domain (pGBKT7-ACDP4) (not stated (human or mouse cDNA cloned)) (UniProt Q6P4Q7)
T1 sequence: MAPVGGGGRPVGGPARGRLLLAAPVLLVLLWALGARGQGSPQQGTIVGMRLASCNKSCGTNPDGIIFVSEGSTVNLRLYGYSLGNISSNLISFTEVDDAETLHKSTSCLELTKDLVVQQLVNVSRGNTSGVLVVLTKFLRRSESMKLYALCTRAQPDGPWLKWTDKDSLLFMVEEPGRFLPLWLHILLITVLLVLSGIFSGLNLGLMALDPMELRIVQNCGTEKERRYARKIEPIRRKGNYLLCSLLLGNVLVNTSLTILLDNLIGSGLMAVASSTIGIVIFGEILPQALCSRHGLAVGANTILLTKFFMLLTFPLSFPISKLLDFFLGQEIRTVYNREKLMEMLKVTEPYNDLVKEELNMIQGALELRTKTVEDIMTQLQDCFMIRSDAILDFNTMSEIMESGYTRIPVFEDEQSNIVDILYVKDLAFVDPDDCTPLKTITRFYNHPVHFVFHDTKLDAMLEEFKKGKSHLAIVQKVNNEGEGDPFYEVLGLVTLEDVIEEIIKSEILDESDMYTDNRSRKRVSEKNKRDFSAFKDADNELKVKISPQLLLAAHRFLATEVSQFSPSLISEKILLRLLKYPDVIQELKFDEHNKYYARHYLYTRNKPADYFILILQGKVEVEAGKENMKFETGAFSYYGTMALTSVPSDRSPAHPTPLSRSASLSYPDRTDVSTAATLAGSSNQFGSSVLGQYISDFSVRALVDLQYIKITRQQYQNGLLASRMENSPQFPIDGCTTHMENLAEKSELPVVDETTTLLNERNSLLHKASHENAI


Target: T1, ACDP4 (Ancient Conserved Domain Protein 4), fused to the GAL4 DNA-binding domain (pGBKT7-ACDP4) (not stated (human or mouse cDNA cloned))
Experiment: two-hybrid; pGBKT7-ACDP4 co-transformed with pGADT7-COX11 or pGADT7-RBM30 into AH109 yeast; beta-galactosidase assay of cultures with ONPG; empty pGADT7 as control

Row | binding | Binder
1 | binds | COX11, full length, fused to the GAL4 activation domain (pGADT7-COX11) (protein, UniProt Q9Y6N1 1-276) MGGLWRPGWRCVPFCGWRWIHPGSPTRAAERVEPFLRPEWSGTGGAERGLRWLGTWKRCSLRARHPALQPPRRPKSSNPFTRAQEEERRRQNKTTLTYVAAVAVGMLGASYAAVPLYRLYCQTTGLGGSAVAGHASDKIENMVPVKDRIIKISFNADVHASLQWNFRPQQTEIYVVPGETALAFYRAKNPTDKPVIGISTYNIVPFEAGQYFNKIQCFCFEEQRLNPQEEVDMPVFFYIDPEFAEDPRMIKVDLITLSYTFFEAKEGHKLPVPGYN
2 | binds | RNA binding motif protein 30 (RBM30), full length, fused to the GAL4 activation domain (pGADT7-RBM30) (protein, UniProt Q9BQ04 1-359) MVKLFIGNLPREATEQEIRSLFEQYGKVLECDIIKNYGFVHIEDKTAAEDAIRNLHHYKLHGVNINVEASKNKSKASTKLHVGNISPTCTNQELRAKFEEYGPVIECDIVKDYAFVHMERAEDAVEAIRGLDNTEFQGKRMHVQLSTSRLRTAPGMGDQSGCYRCGKEGHWSKECPVDRTGRVADFTEQYNEQYGAVRTPYTMGYGESMYYNDAYGALDYYKRYRVRSYEAVAAAAAASAYNYAEQTMSHLPQVQSTTVTSHLNSTSVDPYDRHLLPNSGAAATSAAMAAAAATTSSYYGRDRSPLRRAAAMLPTVGEGYGYGPESELSQASAATRNSLYDMARYEREQYVDRARYSAF
